This is one part of the list.

This assay concerns the target T1, OsSMF1 (Oryza sativa, UniProt Q6ZLB0 1-436).
T1 sequence: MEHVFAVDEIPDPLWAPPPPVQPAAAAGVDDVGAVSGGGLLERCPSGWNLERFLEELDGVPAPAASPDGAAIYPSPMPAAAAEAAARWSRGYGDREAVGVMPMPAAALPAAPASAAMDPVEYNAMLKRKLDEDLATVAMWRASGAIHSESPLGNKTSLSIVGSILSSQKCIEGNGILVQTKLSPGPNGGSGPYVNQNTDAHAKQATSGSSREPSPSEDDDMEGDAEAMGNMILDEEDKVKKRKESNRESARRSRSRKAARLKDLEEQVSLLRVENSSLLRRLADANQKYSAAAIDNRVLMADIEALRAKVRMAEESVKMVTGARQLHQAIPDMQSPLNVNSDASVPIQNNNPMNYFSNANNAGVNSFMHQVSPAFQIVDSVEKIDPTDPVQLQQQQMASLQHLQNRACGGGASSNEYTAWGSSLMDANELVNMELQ
Briefly: protein-binding microarray (RPBM); PBS, 2% BSA, 51.3 ng/ul salmon testes DNA, 50 uM zinc acetate, 200 nM TF, 25 C, 1 h; high values mean tight binding. The note with it: protein: recombinant; tags: N-terminal polyhistidine and DsRed monomer fusion (pET32a); chain copies: 2; label: CyDye5-dUTP incorporated in the synthesized complementary strand; 3' TTTTT single-stranded linker to array surface; dsDNA, one strand shown. The essentials: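 For the binding signal, per-feature fluorescence intensity was read in arbitrary units on an Axon 4000B scanner. Before scanning, a 2% BSA-blocked custom Agilent array made double-stranded with Cy5-dUTP was washed after 1 h at 25 °C with 200 nM protein and 50 µM zinc acetate. The proteins were Ni–NTA-purified transcription factors with N-terminal polyhistidine and DsRed fusions, expressed in E. coli BL21-CodonPlus.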
For the sequence “CGAGGCTGGCGTGGTGGCGTGCCGTGTACAGTGTGCTAGTCGGAGTCACCTAGTGCAG”, the binding signal was 3810 fluorescence intensity (a.u.).
For “TCCCGGCGTGCTCGCGTGGCGGCGCCGCCGGAGCTGCTCACGGAGTCACCTAGTGCAG” the value was 6590 fluorescence intensity (a.u.); for “TGGAAACGGTTTTAACTGGCATGACGACGTGGGACCCACACGGAGTCACCTAGTGCAG”, 5420 fluorescence intensity (a.u.).
For “GGTCGCCGTTGCCGTTGCTGGTGGCCTCTCCCACTTAATGCGGAGTCACCTAGTGCAG” the value was 4450 fluorescence intensity (a.u.).
The same measure for “CTTATATTCTGAGACAGAGTACTAGTTAGCTTTGTCTCTACGGAGTCACCTAGTGCAG”: 11900 fluorescence intensity (a.u.); for “TCAGATAGCCACCATGACATGTATCAGTACATGCAGTGATCGGAGTCACCTAGTGCAG”: 4480 fluorescence intensity (a.u.); for “CCGTCGCTTGGCGATCGGACGGCGTGGATCCAATCCAACGCGGAGTCACCTAGTGCAG”: 4610 fluorescence intensity (a.u.).
Regarding “GGATAAGTGCCCCTACCAATAGGTGGACCCTTGTCACTGGCGGAGTCACCTAGTGCAG”, the binding signal was 19300 fluorescence intensity (a.u.).
For “ATTGGATTTCCACGTCGACGGTACGTGTATGCCACGTAGGCGGAGTCACCTAGTGCAG”, the binding signal was 32900 fluorescence intensity (a.u.).
For “CTCCCCGCGCCTCCCGGGGCAAAACTACCCCTCACCTTGGCGGAGTCACCTAGTGCAG”, the binding signal is 3280 fluorescence intensity (a.u.).
For “ACGGTGTTGCACTATATTATCACAGAATGTTTCACATATTCGGAGTCACCTAGTGCAG” the value was 5730 fluorescence intensity (a.u.); for “GCGGGCGCACGGGTGGGTGGTGTTCTGGGGCGGAGGCAGCCGGAGTCACCTAGTGCAG”, 3310 fluorescence intensity (a.u.); for “CTTCGGCGTCCATGGGCCCACCGTTATTGGGCCACGTTCGCGGAGTCACCTAGTGCAG”, 3450 fluorescence intensity (a.u.).
For “CCGCTTCGACTCCAACATCAAGCAGATGGCCGACAACGGCCGGAGTCACCTAGTGCAG” the value was 17600 fluorescence intensity (a.u.); for “CATGGAGCTCTAAAGCCCGCCCACGCCATGCGCCGAGTAGCGGAGTCACCTAGTGCAG”, 3140 fluorescence intensity (a.u.).
The same measure for “GATGGGCACTGGAAGCTGGAGGGGACGTGCTTGCCGCACTCGGAGTCACCTAGTGCAG”: 4190 fluorescence intensity (a.u.).
Take “TGGACCGGGGCCAAGCCAAATGGACGTGCCGTGGGCCGTGCGGAGTCACCTAGTGCAG”: the binding signal is 3720 fluorescence intensity (a.u.).
“TCCAACCATTACTGCATCGCGTCAGCTCACGTGGACCCACCGGAGTCACCTAGTGCAG”: the binding signal is 13100 fluorescence intensity (a.u.).
The same measure for “CTTATTGTTGGCTAATATGGTTTTACATATACAATAATAACGGAGTCACCTAGTGCAG”: 4780 fluorescence intensity (a.u.).
The same measure for “AGGAAGACAACTATGATTTGGCAACTCGGTGGCGGTGGCGCGGAGTCACCTAGTGCAG”: 3460 fluorescence intensity (a.u.).
With “GCTATCTCGCCGTACCGCCGTCGCCGCTTCCTCTCGCACGCGGAGTCACCTAGTGCAG”, the binding signal was 3900 fluorescence intensity (a.u.).
The same measure for “CTGCTTGAGCAATATGGCTCAGCCAACTTCGTCAGCAAGGCGGAGTCACCTAGTGCAG”: 3180 fluorescence intensity (a.u.); for “GAGAGAGAGAGGAGATAATAAAATACTCGATATTGAATTGCGGAGTCACCTAGTGCAG”: 42500 fluorescence intensity (a.u.); for “CGGCCCGTCAACGCGACACGTGTCCCGGTCGGTCGGGTGTCGGAGTCACCTAGTGCAG”: 19000 fluorescence intensity (a.u.).
The same measure for “TATGCTCCTCTTTCAGGGTTATGGTATGACTGAGACTTGTCGGAGTCACCTAGTGCAG”: 3370 fluorescence intensity (a.u.); for “GATAAGTCTATCGTGGGTCGTGGCCCATCGCACACCGGCACGGAGTCACCTAGTGCAG”: 3270 fluorescence intensity (a.u.); for “TTCTCCGGATCGCTTCTTCCACCTCGCGCGCACTTCACCTCGGAGTCACCTAGTGCAG”: 3240 fluorescence intensity (a.u.).
For “CTATCTGTCATCCACATGACGTATAAGTGACACGATAAGTCGGAGTCACCTAGTGCAG” the value was 3750 fluorescence intensity (a.u.); for “CGCGGCTGGCGTTGATGGCGGTGACGCGGCCCATGCATGGCGGAGTCACCTAGTGCAG”, 5920 fluorescence intensity (a.u.); for “AGTGATGCTGAACTTTATTCACATACCTACTCGTGGCATTCGGAGTCACCTAGTGCAG”, 3840 fluorescence intensity (a.u.).
As for “TCCATCGTCATCAAATTCATCGTATCCCTGGACGGGCAGACGGAGTCACCTAGTGCAG”, the binding signal is 3250 fluorescence intensity (a.u.).
For “GCATCTACCCGTCCAACTCATTTATCAGCATGCAAATTTTCGGAGTCACCTAGTGCAG” the value was 4800 fluorescence intensity (a.u.); for “GGTCACCACTTGTCAAGTTGTCATCATCACTGGCCTACTCCGGAGTCACCTAGTGCAG”, 3680 fluorescence intensity (a.u.); for “AGATAATAATTATCAGTGGGTAATGATGTGGCACACTTACCGGAGTCACCTAGTGCAG”, 11200 fluorescence intensity (a.u.).
The same measure for “AAGAAGAACAGATTAATCGCCCAGTCTCTGTCAGACAAGGCGGAGTCACCTAGTGCAG”: 3400 fluorescence intensity (a.u.); for “ACGACGAGACGACACACTTACAACGGCCGCCTCGGTCTCCCGGAGTCACCTAGTGCAG”: 3240 fluorescence intensity (a.u.).
Regarding “GCTGCCTCCACGTCTCCACCTCGCACCGCGCCAAGGCGGCCGGAGTCACCTAGTGCAG”, the binding signal is 4520 fluorescence intensity (a.u.).
The same measure for “TTTATCTACGTGTTCATGTACTGCTACAATCGCCATAATTCGGAGTCACCTAGTGCAG”: 4110 fluorescence intensity (a.u.); for “TGGCCCATATTAGCCCATTGAGAGCCCAGATGACTCATGGCGGAGTCACCTAGTGCAG”: 8280 fluorescence intensity (a.u.).
For “TCATCAGAAGTAGCGAGAGGGCAAGATCCGGAGAAGTAATCGGAGTCACCTAGTGCAG” the value was 7740 fluorescence intensity (a.u.); for “ACTCCGGTTTTATCCCACGTGGCGGCTGAGTCCCCACATGCGGAGTCACCTAGTGCAG”, 14200 fluorescence intensity (a.u.).
The same measure for “CAAATGACATGGTAAGACAATACTACCACGTCAGCCAAAACGGAGTCACCTAGTGCAG”: 11600 fluorescence intensity (a.u.); for “TGATGGCCGGTGATCAGTGGCATGTGCATGTTATATTATTCGGAGTCACCTAGTGCAG”: 3260 fluorescence intensity (a.u.); for “ACTTTCTTGAATTTAATGCGTGACTCTCCATTCGTCCACACGGAGTCACCTAGTGCAG”: 3620 fluorescence intensity (a.u.).
In the case of “GTCCGGCTGGCGAGCATGCGGCACTCGGCGAGCAGGTCGTCGGAGTCACCTAGTGCAG”, the binding signal was 26300 fluorescence intensity (a.u.).
For “AAGACAGATTCCACCACTGCCAAGTGCCAGCGCAGTCCTCCGGAGTCACCTAGTGCAG” the value was 3720 fluorescence intensity (a.u.); for “TATGTGAGATTTGTTACAACGAACAGGTAATTTAAAATTGCGGAGTCACCTAGTGCAG”, 32400 fluorescence intensity (a.u.); for “TCGTTGCTTGGCCACTGACTTGCGAGTTGCGACAATTCCTCGGAGTCACCTAGTGCAG”, 3190 fluorescence intensity (a.u.).
For “TAATAGCTTACAGTAGGTAGGTAGATTCGTGTACGTGTGGCGGAGTCACCTAGTGCAG” the value was 3240 fluorescence intensity (a.u.).
For “GCCCACGGCGCACACTTAGCGGTACACGTGTACGGCAGAGCGGAGTCACCTAGTGCAG” the value was 7410 fluorescence intensity (a.u.).
For the sequence “GAGGACAGATCAAATGATTTTAATGACGAAACATGTGCTTCGGAGTCACCTAGTGCAG”, the binding signal was 4096 fluorescence intensity (a.u.).
For “CTTGCTCGATTGCCGCCGCCAGGAACTGGTCATGCGTGTTCGGAGTCACCTAGTGCAG” the value was 3210 fluorescence intensity (a.u.); for “TGGGTCATATCTCATCCTAGGTAGAGTTATTTTGGGACGGCGGAGTCACCTAGTGCAG”, 3160 fluorescence intensity (a.u.); for “CGGTTCCGACAACAGCAGCCGCTGGGCGGAGCCATCGCCCCGGAGTCACCTAGTGCAG”, 28000 fluorescence intensity (a.u.).
